# Patent US20150266963A1
# Numbering of substitutions follows the chain as printed. Results are given in words; binding and its absence hold for the method and conditions named. Some binding calls cover weakened binding; strength is not graded here. For part of these data: Sequences can lack the tags named with a protein.
# B1: 5F4 chimeric llama-human mAb (antibody, human IgG1, V domains shown)
# VH: EVQVQESGGGLVHPGGSLKLSCAASGFTFDTYAMSWVRQAPGKGLEWVSAISWSGGETFYAESMKGRFTISRNNAKNTLYLQMNSLKSEDTAVYYCARGMGLAEGLTDWGQGTQVTVSS
# VL: QAVVTHPPSLSASPGSSVRLTCTLISGDNIGGYDISWYQQKTGSPPRYLLYYYSDSYKHQSSGVPSRFSGSKDASANAGLLLISGLQSEDEADYYCSAYKSGSYKAPVFGGGTHLTVLG
# B2: 9G2 chimeric llama-human mAb (antibody, human IgG1, V domains shown)
# VH: QVQLVESGGGLMQPGGSLRLSCAASGFTFSSSAMSWVRQAPGKGLEWVSSIYSDSSYTYYADSVKSRFTISTDNAKNTLYLQMNSLKPDDTAVYYCAGSSDYEGSFASWGQGTQVTVSS
# VL: QSVVTQPPSLSASPGSSVRLTCTLSSGNSVGNYDISWYQQKAGSPPRYLLYYYSDSVKHQGSGVPSRFSGSSDASANAGLLLISGLQPEDEADYYCSAYKSGSHVFGGGTKLTVLG
# B3: 57B6 chimeric llama-human mAb (antibody, human IgG1, V domains shown)
# VH: QLQLVESGGGLVQPGGSLRLSCAASGFSFSHYAMSWVRQAPGKGLEWVSGDNTYDGGTRYQDSVKGRFTISRDNGKNTLYLQMNSLKPEDTAVYYCAKDTGRGIMGEYGMDYWGKGTLVTVSS
# VL: QTVVTQEPSLSVSPGGTVTLTCGLKSGSVTSSNYPAWYQQTPGQAPRLLIYNTNSRHSGVPSRFSGSISGNKAALTITGAQPEDEADYYCALYMGSGSANAMFGGGTHLTVLG
# B4: 35G2 mAb (full-length human IgG1, HEK293) (antibody, V domains shown)
# VH: EVQLVESGGGLVQPGGSLRLSCAASGFTFSVYYMNWVRQAPGKGLEWVSDINNEGGTTYYADSVKGRFTISRDNAKNTLYLQMNSLKPEDTAVYYCARDAGYSNHVPIFDSWGQGTLVTVSS
# VL: QTVVTQEPSFSVSPGGTVTLTCGLKSGSVTSTNFPTWYQQTPGQAPRLLIYNTNSRHSGVPDRFSGSILGNKAALTITGAQADDEADYFCALFISNPSVEFGGGTQLTVLG
# B5: 40F1 mAb (full-length human IgG1, HEK293) (antibody, V domains shown)
# VH: B4 VH with T57A, A75S, T78S, K87R, P88A, L117Q
# VL: B4 VL with T2A, T32D, S55T, D87E
# B6: 9B2 Fab (Fab, V domains shown)
# VH: B2 VH with V2L, L4V, S31G, D54H, S56M, G98A, S105L, A107V
# VL: B2 VL with S2A, V4L, S25N, G27A, N32S, V57L, K58S, S72T, K100N, S101R
# B7: 5B2 (Fab, V domains shown)
# VH: QVQLVESGGDLVQPGGSLRLSCAASGFTVSNPAMSWVRQAPGKGLEWVSEITNYGYNRYYADSVKGRFTISTDNAKNTLYLQMNSLRSEDSAVYYCTASLGLEYGYGDWGQGTQVTVSS
# VL: QSALTQPPSVSGTLGKTLTISCAGTSSDVGYGNYVSWYQQLPGTAPKLLIYRVSTRASGMPDRFSGSKSGNTASLTISGLQSEDEADYYCASYTTNNKPVFGGGTHLTVLG
# B8: 9E1 Fab (Fab, V domains shown)
# VH: EVQLQESGGGVVQPGGSLRLSCAASGFTFDDYAMSWVRQAPGKGLEWVSSIYMYDSSTYYADSVKGRFTISTDNAKNTVYLQMNSLKSEDTAVYYCAKDINRSYGSSWSHFGPIFSSWGQGTQVTVSS
# VL: QAVVTQEPSLSVSPGGTVTLTCGLTSGSVTSSNYPDWYQQTPGQAPRLLIYNTNSRHSGVPSRFSGSISGNKAALTITGAQPEDEADYYCNLYMGSGGSKVFGGGTKLTVLG
# B9: 4D2 Fab (Fab, V domains shown)
# VH: QVQLQESGPGLVKPSQTLSLACTVSGGSITTSYYYWSWIRQPPGKGLEWMGAIGSRGSTYYSPSLKTRTSISRDTSKNQFTLQLSSVTPEDTAVYYCARVTGEITYNSGSYYYTLNLFDYWGQGTQVTVSS
# VL: QSVLTQPPSLSASPGSSVRLTCTLSSGNSVGNYDISWYQQKAGSPPRYLLYYYSDSYKNQGSGVPSRFSGSKDPSANAGLLLISGLQAEDEADYYCSVSNSGTYKPVFGGGSKLTVLG
# B10: 9D1 Fab (Fab, V domains shown)
# VH: B4 VH with Y80T, V93L, A97V, L117Q, T119I, S121A
# VL: QAVVTQEPSLSVSPGGTVTLTCGLSSGSVTSSHYPGWYQQTPGQAPRLLIFNTNSRHSGVPSRFSGSISGNKAALTITGAQPEDEADYYCALLNIDDGSTMFGGGTHLTVLG
# B11: 24F2 Fab (Fab, V domains shown)
# VH: B4 VH with Y80T, V93L, A97V, L117Q, T119I, S121A
# VL: QSALTQPSAVSVSLGQTARITCRGDTLRNYHANWYRQKPGQAPVLVIYGDDIRPSGIPERFSGSRLGGTATLTVSGAQAEDEADYYCQSSDSSGYRVVFGGGTKLTVLG
# B12: 33D8 Fab (Fab, V domains shown)
# VH: B4 VH with Y80T, V93L, A97V, L117Q, T119I, S121A
# VL: QSALTQPSTVSVSLGQTARITCRGDSLERYGTNWYQQKPGQAPVLVIYDDDSRPSGIPERFSGSSSGATAALTISGAQAEDEGDYYCQSADSSGNAVFGGGTHLTVLG
# B13: 24E3 Fab (Fab, V domains shown)
# VH: B4 VH with Y80T, V93L, A97V, L117Q, T119I, S121A
# VL: QAVVTQEPSLSVSPGGTVTLTCGLTSGSVTSDNFPVWYQQTPGQAPRLLIYTINSRHSGVPSRFSGSITGNKAILTITGAQPEDEADYYCALYLENFANEFGGGTRLTVLG
# B14: 19G10 Fab (Fab, V domains shown)
# VH: B8 VH
# VL: NFMLTQPSAVSVSLGQTARITCQGGYYTHWYQQKPGQAPVLVIYVNNNRPSGIPERFSGSSSGNTATLTISGAQAEDEAAYYCQSGSSSTIPVFGGGTKLTVLG
# B15: 24B6 Fab (Fab, V domains shown)
# VH: B8 VH
# VL: B14 VL with N1Q, F2P, M3V, V45I, S61I, A75V, A80D
# B16: 5F4 Fab (Fab, V domains shown)
# VH: B1 VH
# VL: B1 VL
# B17: 9G2 Fab (Fab, V domains shown)
# VH: B2 VH
# VL: B2 VL
# B18: 6D5 (Fab, V domains shown)
# VH: EVQLVQPGAELRKPGASVKVSCKASGYTFTSYYIDWVRQAPGQGLEWMGRIDPEDGGTKYAQKFQGRVTFTADASTSTAYVELSSLRSEDTAVYYCASRRRDFDYWGQGTQVTVSS
# VL: QSALTQPSAVSVSLGQTARITCQGGNARFSSFAWYQQKPGQAPVQVIYYNTNRPSGIPARFSGSSSGGAATLTISGAQAEDEADYYCQSYESGNYVFGGGTTLTVLG
# B19: 45A12 (Fab, V domains shown)
# VH: EVQLVESGGGLVQPGGSLRLSCAASGFTFSAYYMNWVRQAPGKGLEWISDINNEGYETYYADSVKGRFTISRDNAKNTLTLQMDSLKPEDTARYYCVRDAGYSNHVQIFDSWGQGTQVIVAS
# VL: QAVVTQEPSLSVSPGGTVTLTCGLSSGSATSGNYPEWYQQTPGQAPRLIIYNTASRHSGVPGRFSGSISGNKAALTITGAQPEDEADYYCLLYMGGSDFNFVFGGGTKLTVLG
# B20: 45B12 Fab (Fab, V domains shown)
# VH: B19 VH
# VL: QAVLTQPSSVSVSLGQTAKITCQGGNLGLYGANWYQQNPGRAPILLIYGDNYRPLGIPERFTISKSGGTATLTIDGAQAEDESDYYCQSADYSGNSVFGGGTKLTVLG
# B21: 45B6 (Fab, V domains shown)
# VH: B19 VH
# VL: B3 VL with T2A, K25S, A36D, A99N, A101V, M102V, H108E
# Molecular target: T1, heat denatured recombinant CD70 (human) (UniProt P32970)
# T1 sequence (looked up): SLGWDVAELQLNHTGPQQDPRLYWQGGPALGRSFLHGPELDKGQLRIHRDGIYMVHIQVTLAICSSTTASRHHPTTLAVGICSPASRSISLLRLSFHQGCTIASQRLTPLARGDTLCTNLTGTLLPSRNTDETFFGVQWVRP
# Experiment: ELISA on coated heat denatured CD70; mAb 10 µg/ml
row,Binder,binding
1,B1,binds
2,B2,binds
3,B3,binds

# Molecular target: T1, heat denatured recombinant CD70 (human)
# Experiment: ELISA on coated heat denatured recombinant CD70, mAb at 10 µg/ml, anti-human IgG-HRP
row,Binder,binding
1,B1,binds
2,B2,binds
3,B3,binds

# Molecular target: T2, recombinant human CD70 (Flag-TNC-CD70) (human) (UniProt P32970)
# T2 sequence (looked up): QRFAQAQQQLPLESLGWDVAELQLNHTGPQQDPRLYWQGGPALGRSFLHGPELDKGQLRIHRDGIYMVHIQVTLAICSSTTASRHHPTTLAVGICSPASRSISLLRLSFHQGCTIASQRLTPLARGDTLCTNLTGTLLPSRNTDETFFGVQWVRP
# Experiment: Biacore, CM5 chip highly coated with CD70 (4000 RU); stored samples against a reference sample [panel 35G2 (slope]
row,Binder,binding
1,B4,binds

# Molecular target: T2, recombinant human CD70 (Flag-TNC-CD70) (human)
# Experiment: Biacore, CM5 chip highly coated with CD70 (4000 RU); stored samples against a reference sample [panel 40F1 (slope]
row,Binder,binding
1,B5,binds

# Molecular target: T2, recombinant human CD70 (Flag-TNC-CD70) (human)
# Experiment: inhibition ELISA: Flag-TNC-CD70 captured by anti-Flag mAb, Fab titrated, remaining binding of CD27-Fc detected
row,Binder,binding
1,B6,binds
2,B7,binds
3,B8,binds
4,B9,binds
5,B10,binds
6,B11,binds
7,B12,binds
8,B13,binds
9,B14,binds
10,B15,binds
11,B16,binds
12,B17,binds
13,B18,binds

# Molecular target: T2, recombinant human CD70 (Flag-TNC-CD70) (human)
# Experiment: binding ELISA (captured Flag-TNC-CD70, Fab detected with anti-myc-HRP; black bars) and inhibition ELISA (binding of CD27-Fc, m17; white bars); one sample per Fab, concentration not given
row,Binder,binding
1,B19,binds
2,B20,binds
3,B21,binds
